Values from PubChem BioAssay AID652243 (Drosophila RNAi Screening Center, 2013)
The screen tested about 24,000 reagents; below is an unselected part of those with a known target gene and a result. In the full data, 246 (1%) are marked active. 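Plates not normalised; calls are printed but the firefly/Renilla ratio behind them is not deposited; fold cut for lowering reported inconsistently.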 The raw values are shown without normalisation. The numbers tell different reagents against one gene apart. Names joined by + are all predicted targets of the reagent. Reagent sequences are not shown. Not stated in the record: the amount of reagent.

Assay: 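Fly regulators of androgen-dependent reporter output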 (primary screen)
Cells: Drosophila S2R+ cells
Reagents: long dsRNA against Drosophila genes
Timing: 72 h (48 h, then 24 h hormone)
Challenge: synthetic androgen R1881 at 10 nM for 24 h
Measurement: 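Per-well raw luminescence of the androgen-driven firefly reporter and of the Renilla control, two replicates each, without normalisation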
Scale: firefly reporter light: higher = more light from androgen-responsive reporter; Renilla control light: higher = more constitutive control signal (cell number, transfection)
Call rule: 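Hit when the log firefly-to-Renilla ratio dropped or increased by a fixed fold versus the mean of GFP or LacZ controls across duplicate plates; lowering cut given as 1.5 and as 3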
Meaning of the calls: active = hit: reporter lowered or raised; inactive = no hit

| predicted target | reagent no. | firefly reporter light, replicate 1 | firefly reporter light, replicate 2 | Renilla control light, replicate 1 | Renilla control light, replicate 2 | activity call |
| --- | --- | --- | --- | --- | --- | --- |
| CG11523 | 1 | 63868 | 51170 | 4.99e5 | 4.03e5 | inactive |
| CG11523 | 2 | 3.24e5 | 2.98e5 | 3.80e5 | 6.55e5 | inactive |
| Tret1-1 | 1 | 2.69e5 | 1.53e5 | 1.98e6 | 1.68e6 | inactive |
| Tret1-1 | 2 | 2.00e5 | 1.43e5 | 1.00e6 | 9.31e5 | inactive |
| Tret1-1 | 3 | 6.86e5 | 8.75e5 | 9.45e5 | 9.77e5 | inactive |
| CG9302 | 1 | 4.08e5 | 4.35e5 | 2.39e6 | 3.45e6 | inactive |
| fs(1)Ya | 1 | 7.65e5 | 1.03e6 | 1.48e6 | 1.71e6 | inactive |
| Cortactin | 1 | 1.38e5 | 1.22e5 | 8.90e5 | 6.88e5 | inactive |
| Cortactin | 2 | 5.63e5 | 5.23e5 | 9.73e5 | 1.12e6 | inactive |
| Non3 | 1 | 52521 | 57619 | 7.85e5 | 4.64e5 | inactive |
| CG6398 | 1 | 1.01e5 | 87883 | 7.48e5 | 7.80e5 | inactive |
| Osi13 | 1 | 32302 | 47234 | 7.27e5 | 7.16e5 | inactive |
| Ccp84Af | 1 | 70209 | 84110 | 9.81e5 | 1.58e6 | inactive |
| Ccp84Af | 2 | 7.61e5 | 7.70e5 | 7.57e5 | 6.82e5 | inactive |
| tral | 1 | 69610 | 68164 | 2.14e5 | 2.51e5 | inactive |
| tral | 2 | 6.61e5 | 8.61e5 | 1.06e6 | 8.87e5 | inactive |
| Pmvk | 1 | 1.58e5 | 1.63e5 | 1.73e6 | 1.48e6 | inactive |
| Pmvk | 2 | – | – | – | – | inactive |
| CG5800 | 1 | 5.71e5 | 6.39e5 | 2.92e6 | 3.05e6 | inactive |
| CG5800 | 2 | 5.53e5 | 4.07e5 | 2.19e6 | 1.31e6 | inactive |

6 consecutive reagents already listed:
| predicted target | reagent no. | firefly reporter light, replicate 1 | firefly reporter light, replicate 2 | Renilla control light, replicate 1 | Renilla control light, replicate 2 | activity call |
| --- | --- | --- | --- | --- | --- | --- |
| Tret1-1 | 1 | 2.69e5 | 1.53e5 | 1.98e6 | 1.68e6 | inactive |
| Tret1-1 | 2 | 2.00e5 | 1.43e5 | 1.00e6 | 9.31e5 | inactive |
| Tret1-1 | 3 | 6.86e5 | 8.75e5 | 9.45e5 | 9.77e5 | inactive |
| CG9302 | 1 | 4.08e5 | 4.35e5 | 2.39e6 | 3.45e6 | inactive |
| fs(1)Ya | 1 | 7.65e5 | 1.03e6 | 1.48e6 | 1.71e6 | inactive |
| Cortactin | 1 | 1.38e5 | 1.22e5 | 8.90e5 | 6.88e5 | inactive |

Next reagents follow.
| predicted target | reagent no. | firefly reporter light, replicate 1 | firefly reporter light, replicate 2 | Renilla control light, replicate 1 | Renilla control light, replicate 2 | activity call |
| --- | --- | --- | --- | --- | --- | --- |
| CG9166 | 1 | 77792 | 1.11e5 | 8.65e5 | 1.15e6 | inactive |
| CG7430 | 1 | 21056 | 18212 | 2.97e5 | 2.93e5 | inactive |
| CG32428 | 1 | 2964 | 4436 | 14136 | 42824 | inactive |
| CG32428 | 2 | 2.93e5 | 3.06e5 | 2.76e6 | 2.51e6 | inactive |
| CG32428 | 3 | 3.67e5 | 4.38e5 | 9.83e5 | 7.99e5 | inactive |
| CG8516 | 1 | 1.90e5 | 1.94e5 | 3.71e6 | 3.29e6 | inactive |
| CG7149 | 1 | 6.32e5 | 8.66e5 | 2.07e6 | 1.49e6 | inactive |
| tx | 1 | 36315 | 48677 | 5.79e5 | 5.56e5 | inactive |
| tx | 2 | 3.65e5 | 3.83e5 | 3.91e5 | 5.43e5 | inactive |
| pHCl-2 | 1 | 1.85e5 | 1.46e5 | 2.58e6 | 2.66e6 | inactive |
| CG7059 | 1 | 4.60e5 | 4.28e5 | 4.23e6 | 4.25e6 | inactive |
| CG7059 | 2 | 5.39e5 | 5.91e5 | 1.14e6 | 9.36e5 | inactive |
| sub | 1 | 9.26e5 | 9.02e5 | 1.53e6 | 1.76e6 | inactive |
| Dip-B | 1 | 1.08e5 | 93494 | 9.54e5 | 9.42e5 | inactive |
| Dip-B | 2 | 4.23e5 | 3.72e5 | 8.17e5 | 6.81e5 | inactive |
| mr | 1 | 1.17e6 | 7.92e5 | 1.71e6 | 1.98e6 | inactive |
| mr | 2 | 7.76e5 | 1.39e6 | 7.13e5 | 1.38e6 | inactive |
| mr | 3 | 4.28e5 | 4.72e5 | 1.05e6 | 1.05e6 | inactive |
| CG10469 | 1 | 1.11e5 | 1.01e5 | 1.54e6 | 2.05e6 | inactive |
| CG10469 | 2 | 1.28e6 | 9.56e5 | 1.17e6 | 1.12e6 | inactive |
| CG34181 | 1 | 7.28e5 | 6.78e5 | 1.57e6 | 1.25e6 | inactive |
| EndoG | 1 | 4.39e5 | 3.68e5 | 4.05e6 | 3.59e6 | inactive |
| EndoG | 2 | 6.94e5 | 8.05e5 | 1.19e6 | 1.22e6 | inactive |
| EndoG | 3 | 2.58e5 | 4.46e5 | 6.26e5 | 6.02e5 | inactive |
| CG43673 + CG43672 | 1 | 4.03e5 | 4.47e5 | 2.80e6 | 2.07e6 | inactive |
| CG43673 + CG43672 | 2 | 4.81e5 | 4.00e5 | 3.64e6 | 2.65e6 | inactive |
| CG12231 | 1 | 30145 | 25246 | 1.31e5 | 1.51e5 | inactive |
| GCS1 | 1 | 80562 | 78949 | 4.82e5 | 5.43e5 | inactive |
| GCS1 | 2 | 8.48e5 | 9.09e5 | 5.87e5 | 7.11e5 | inactive |
| MED22 | 1 | 1.81e5 | 2.31e5 | 3.37e6 | 3.09e6 | inactive |
| ash1 | 1 | 19380 | 20015 | 2.00e5 | 1.39e5 | inactive |
| Cp18 | 1 | 2.35e5 | 3.35e5 | 3.13e6 | 1.88e6 | inactive |
| DCTN1-p150 | 1 | 8.23e5 | 2.77e5 | 1.37e6 | 7.98e5 | inactive |
| DCTN1-p150 | 2 | 7.15e5 | 3.94e5 | 6.62e5 | 5.31e5 | inactive |
| CG12730 | 1 | 3.35e5 | 3.10e5 | 3.29e6 | 2.65e6 | inactive |
| lbl | 1 | 2.60e5 | 3.29e5 | 3.55e6 | 3.61e6 | inactive |
| trol | 1 | 3.53e5 | 4.13e5 | 4.17e6 | 3.65e6 | inactive |
| trol | 2 | 3.18e5 | 2.51e5 | 3.71e6 | 2.19e6 | inactive |
| trol | 3 | 4.65e5 | 4.66e5 | 1.16e6 | 1.26e6 | inactive |
